# This is a selection; strong and weak results do not stand in their true shares. At the low end of the ranking the order means little.
# Target: T1, ELK3 (UniProt P41970)
# T1 sequence: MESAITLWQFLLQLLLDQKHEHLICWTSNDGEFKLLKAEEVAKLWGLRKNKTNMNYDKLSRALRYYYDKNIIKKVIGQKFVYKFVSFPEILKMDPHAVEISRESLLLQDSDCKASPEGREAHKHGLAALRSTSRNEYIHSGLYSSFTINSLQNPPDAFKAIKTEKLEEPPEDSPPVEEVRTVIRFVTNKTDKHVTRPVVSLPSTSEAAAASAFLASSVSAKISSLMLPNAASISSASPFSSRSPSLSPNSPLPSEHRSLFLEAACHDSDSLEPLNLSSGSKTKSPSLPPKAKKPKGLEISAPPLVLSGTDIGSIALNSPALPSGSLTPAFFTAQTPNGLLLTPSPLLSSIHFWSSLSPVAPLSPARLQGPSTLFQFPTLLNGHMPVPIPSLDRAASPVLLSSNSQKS
# Test: DAPPL (digital affinity profiling via proximity ligation, sequencing)
# Details: 10 mM Tris-HCl pH 7.5, 50 mM NaCl, 1 mM DTT, 4% glycerol, room temperature, 30 min; GST-TFs on glutathione beads, 16-mer random dsDNA library, 0.1% …; high values mean tight binding; double strand, one strand shown; scale: fold enrichment (6-mer frequency, TF over GST control)
row,Sequence,binding signal
1,GAAATT,1.28
2,ATAGAT,1.23
3,CTTCCA,1.58
4,TTAGCA,1.17
5,TTCAAT,1.26
6,TTCATT,1.23
7,CTGATT,1.21
8,TCTACA,1.23
9,ATCTGG,1.09
10,CTACGC,1.56
11,GAAGTC,1.19
12,TTGTAT,1.4
13,CTCATA,1.34
14,GATGGG,0.979
15,TAGTTC,1.15
16,CATTTT,1.15
17,AGCAAC,0.995
18,ACCACA,1.14
19,AGGAAG,1.26
20,AAGATC,1.02

row,Sequence,binding signal
1,TGCCTA,0.878
2,TAGCTC,1.28
3,TATGTG,0.989
4,TGCTCC,1.38
5,CAACAC,0.981
6,CCACTA,1.22
7,GCCGCC,1.15
8,TATCGC,0.995
9,ACAACA,1.19
10,GTCTCC,1.56
11,GATATG,1.04
12,TGTATT,1.43
13,CCGCGC,1.24
14,GCTTCC,4.31
15,CATTAA,0.908
16,AACCCG,1.49
17,ACGTTT,1.2
18,GATTCA,1.1
19,AGTAAT,1.12

# 2 entries from above in a different format.
row | Sequence | binding signal
8 | TCTACA | 1.23
9 | ATCTGG | 1.09

# Source: PMC7862700
